The other results are listed elsewhere or left out.
What was measured:
Assay in all cases: log2 fold change, soluble protein after heating vs DMSO (PISA); higher = thermal stabilisation; K562 lysate, 10 uM; active = over 0.2 and 3.5 SD of the protein, either way, in both replicates (recomputed)
lapatinib = compound: CS(=O)(=O)CCNCc1ccc(-c2ccc3ncnc(Nc4ccc(OCc5cccc(F)c5)c(Cl)c4)c3c2)o1 [lapatinib]
Summary of the method: (§1)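 A 30 min treatment with 10 μM compound was applied to crude K562 extract at 1 mg/mL protein in PBS pH 7.4 with 1 mM MgCl2. Heating for 3 min spanned 48°C-58°C, after which aliquots were pooled, adjusted to 0.5% NP-40 at 4°C and spun at 21,000xg for 90 min. TMTpro 16plex LC-MS/MS of the supernatant, with channel sums equalised, gave values recorded as log-two fold change in thermal stability against solvent controls, from duplicates.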

The chains behind the UniProt entries cited, without tags or fusion partners. Where a name states a change or a piece, a line headed by the entry shows the natural chain unless it says otherwise.
UniProt Q9UKM9: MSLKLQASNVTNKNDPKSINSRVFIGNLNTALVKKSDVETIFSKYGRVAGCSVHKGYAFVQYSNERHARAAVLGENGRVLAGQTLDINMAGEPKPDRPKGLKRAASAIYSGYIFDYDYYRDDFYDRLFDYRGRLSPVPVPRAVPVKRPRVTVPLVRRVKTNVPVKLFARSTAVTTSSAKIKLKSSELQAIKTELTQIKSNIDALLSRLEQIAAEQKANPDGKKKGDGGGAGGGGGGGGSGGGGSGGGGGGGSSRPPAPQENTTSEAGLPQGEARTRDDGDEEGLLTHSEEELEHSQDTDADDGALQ
UniProt Q8WU10: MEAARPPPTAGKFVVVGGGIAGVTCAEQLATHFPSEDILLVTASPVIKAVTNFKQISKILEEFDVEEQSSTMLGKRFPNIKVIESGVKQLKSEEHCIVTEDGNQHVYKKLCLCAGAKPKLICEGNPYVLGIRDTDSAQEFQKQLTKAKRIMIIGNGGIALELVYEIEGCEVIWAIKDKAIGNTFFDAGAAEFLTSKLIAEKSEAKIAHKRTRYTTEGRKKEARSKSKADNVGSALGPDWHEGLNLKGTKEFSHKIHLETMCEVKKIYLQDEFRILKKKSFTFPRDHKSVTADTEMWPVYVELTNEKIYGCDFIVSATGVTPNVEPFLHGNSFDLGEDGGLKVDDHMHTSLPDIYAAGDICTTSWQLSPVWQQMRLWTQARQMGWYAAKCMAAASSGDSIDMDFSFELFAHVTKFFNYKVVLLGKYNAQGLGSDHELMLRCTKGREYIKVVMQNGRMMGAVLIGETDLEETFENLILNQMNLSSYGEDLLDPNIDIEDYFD
UniProt Q9H2M9: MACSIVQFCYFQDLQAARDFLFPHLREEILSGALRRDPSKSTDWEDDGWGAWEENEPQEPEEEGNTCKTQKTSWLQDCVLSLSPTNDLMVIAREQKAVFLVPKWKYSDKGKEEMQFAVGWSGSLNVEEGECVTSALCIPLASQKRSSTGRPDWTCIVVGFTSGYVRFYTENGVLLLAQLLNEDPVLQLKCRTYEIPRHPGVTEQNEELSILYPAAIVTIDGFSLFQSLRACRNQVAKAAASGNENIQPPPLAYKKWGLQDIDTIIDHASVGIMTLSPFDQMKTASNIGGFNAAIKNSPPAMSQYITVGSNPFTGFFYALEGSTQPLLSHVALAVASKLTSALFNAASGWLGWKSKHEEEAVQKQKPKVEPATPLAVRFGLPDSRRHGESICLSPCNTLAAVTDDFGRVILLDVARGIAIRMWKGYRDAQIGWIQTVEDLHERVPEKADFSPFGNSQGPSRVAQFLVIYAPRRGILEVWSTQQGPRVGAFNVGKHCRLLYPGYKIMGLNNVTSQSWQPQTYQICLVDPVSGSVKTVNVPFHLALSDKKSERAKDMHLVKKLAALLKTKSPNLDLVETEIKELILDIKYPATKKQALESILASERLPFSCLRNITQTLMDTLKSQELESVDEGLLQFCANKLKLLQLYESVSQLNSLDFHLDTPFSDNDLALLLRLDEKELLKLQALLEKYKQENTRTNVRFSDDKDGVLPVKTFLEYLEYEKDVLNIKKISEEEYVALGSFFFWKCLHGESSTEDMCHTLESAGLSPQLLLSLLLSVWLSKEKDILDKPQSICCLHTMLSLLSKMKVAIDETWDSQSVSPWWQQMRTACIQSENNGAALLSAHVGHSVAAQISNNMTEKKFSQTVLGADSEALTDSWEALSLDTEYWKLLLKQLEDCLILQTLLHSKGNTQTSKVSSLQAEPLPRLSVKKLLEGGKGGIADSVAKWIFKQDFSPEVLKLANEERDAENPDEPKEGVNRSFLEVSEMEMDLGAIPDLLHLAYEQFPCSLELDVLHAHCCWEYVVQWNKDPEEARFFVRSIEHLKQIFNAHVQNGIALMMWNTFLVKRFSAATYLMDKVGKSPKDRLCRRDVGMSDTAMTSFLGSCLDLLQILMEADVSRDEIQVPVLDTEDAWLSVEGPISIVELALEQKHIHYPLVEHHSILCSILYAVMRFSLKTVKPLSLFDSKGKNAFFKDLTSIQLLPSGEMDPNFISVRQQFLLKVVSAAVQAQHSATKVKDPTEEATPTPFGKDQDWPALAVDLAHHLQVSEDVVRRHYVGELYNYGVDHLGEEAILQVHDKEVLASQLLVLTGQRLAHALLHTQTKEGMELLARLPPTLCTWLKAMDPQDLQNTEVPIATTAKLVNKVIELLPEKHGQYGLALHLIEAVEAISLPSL
UniProt P61225: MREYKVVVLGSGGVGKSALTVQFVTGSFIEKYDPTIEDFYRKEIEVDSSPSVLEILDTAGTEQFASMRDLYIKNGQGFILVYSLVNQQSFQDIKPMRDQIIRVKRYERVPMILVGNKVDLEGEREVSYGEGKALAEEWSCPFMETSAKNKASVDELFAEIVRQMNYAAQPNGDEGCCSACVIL
UniProt P61019: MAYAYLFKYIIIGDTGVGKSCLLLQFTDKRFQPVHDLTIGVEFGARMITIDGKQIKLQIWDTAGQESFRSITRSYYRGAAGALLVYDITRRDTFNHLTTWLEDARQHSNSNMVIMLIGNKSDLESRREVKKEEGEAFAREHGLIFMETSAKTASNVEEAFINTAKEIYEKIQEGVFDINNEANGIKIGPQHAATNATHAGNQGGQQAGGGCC
UniProt Q9UJ41, whole entry, looked up: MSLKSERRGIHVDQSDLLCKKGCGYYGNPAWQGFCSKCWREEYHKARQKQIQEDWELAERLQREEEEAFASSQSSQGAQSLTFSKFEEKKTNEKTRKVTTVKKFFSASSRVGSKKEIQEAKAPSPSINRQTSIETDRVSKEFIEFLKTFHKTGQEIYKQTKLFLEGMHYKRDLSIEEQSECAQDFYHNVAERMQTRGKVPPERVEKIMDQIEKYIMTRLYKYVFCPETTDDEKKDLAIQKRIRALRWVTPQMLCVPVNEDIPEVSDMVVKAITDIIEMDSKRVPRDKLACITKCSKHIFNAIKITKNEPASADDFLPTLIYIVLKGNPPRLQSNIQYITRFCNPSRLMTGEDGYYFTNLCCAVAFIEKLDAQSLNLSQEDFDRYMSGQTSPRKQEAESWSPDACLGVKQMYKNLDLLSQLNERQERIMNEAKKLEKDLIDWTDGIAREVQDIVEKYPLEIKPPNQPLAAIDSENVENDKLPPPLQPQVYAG
UniProt Q9BTL3: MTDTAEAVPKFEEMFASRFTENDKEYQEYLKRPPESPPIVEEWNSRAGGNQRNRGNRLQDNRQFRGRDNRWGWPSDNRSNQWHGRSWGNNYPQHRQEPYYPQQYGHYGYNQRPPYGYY
UniProt P61106, whole entry, looked up: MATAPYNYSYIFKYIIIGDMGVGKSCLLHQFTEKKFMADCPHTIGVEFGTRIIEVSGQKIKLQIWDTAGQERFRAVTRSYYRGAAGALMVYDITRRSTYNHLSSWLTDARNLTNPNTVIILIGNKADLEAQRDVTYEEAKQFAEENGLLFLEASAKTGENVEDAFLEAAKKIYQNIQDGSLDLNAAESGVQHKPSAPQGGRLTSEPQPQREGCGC
UniProt O60216: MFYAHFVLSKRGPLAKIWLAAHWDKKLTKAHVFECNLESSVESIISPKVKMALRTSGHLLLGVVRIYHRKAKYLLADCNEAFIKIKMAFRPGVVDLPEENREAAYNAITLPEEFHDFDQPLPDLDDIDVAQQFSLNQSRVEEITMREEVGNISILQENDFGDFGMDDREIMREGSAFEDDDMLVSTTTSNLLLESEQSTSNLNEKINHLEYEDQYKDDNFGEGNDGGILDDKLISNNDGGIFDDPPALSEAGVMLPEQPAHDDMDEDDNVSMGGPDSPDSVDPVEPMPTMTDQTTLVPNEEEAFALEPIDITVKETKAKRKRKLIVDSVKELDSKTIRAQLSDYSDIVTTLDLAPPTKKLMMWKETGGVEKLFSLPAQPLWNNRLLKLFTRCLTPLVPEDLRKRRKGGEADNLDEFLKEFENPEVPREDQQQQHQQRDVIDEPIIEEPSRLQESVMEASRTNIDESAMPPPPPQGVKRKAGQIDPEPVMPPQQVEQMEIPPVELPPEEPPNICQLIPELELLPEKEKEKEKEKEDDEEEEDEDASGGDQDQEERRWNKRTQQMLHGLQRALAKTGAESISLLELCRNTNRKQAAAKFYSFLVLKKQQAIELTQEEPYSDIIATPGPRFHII
UniProt Q2TAL8: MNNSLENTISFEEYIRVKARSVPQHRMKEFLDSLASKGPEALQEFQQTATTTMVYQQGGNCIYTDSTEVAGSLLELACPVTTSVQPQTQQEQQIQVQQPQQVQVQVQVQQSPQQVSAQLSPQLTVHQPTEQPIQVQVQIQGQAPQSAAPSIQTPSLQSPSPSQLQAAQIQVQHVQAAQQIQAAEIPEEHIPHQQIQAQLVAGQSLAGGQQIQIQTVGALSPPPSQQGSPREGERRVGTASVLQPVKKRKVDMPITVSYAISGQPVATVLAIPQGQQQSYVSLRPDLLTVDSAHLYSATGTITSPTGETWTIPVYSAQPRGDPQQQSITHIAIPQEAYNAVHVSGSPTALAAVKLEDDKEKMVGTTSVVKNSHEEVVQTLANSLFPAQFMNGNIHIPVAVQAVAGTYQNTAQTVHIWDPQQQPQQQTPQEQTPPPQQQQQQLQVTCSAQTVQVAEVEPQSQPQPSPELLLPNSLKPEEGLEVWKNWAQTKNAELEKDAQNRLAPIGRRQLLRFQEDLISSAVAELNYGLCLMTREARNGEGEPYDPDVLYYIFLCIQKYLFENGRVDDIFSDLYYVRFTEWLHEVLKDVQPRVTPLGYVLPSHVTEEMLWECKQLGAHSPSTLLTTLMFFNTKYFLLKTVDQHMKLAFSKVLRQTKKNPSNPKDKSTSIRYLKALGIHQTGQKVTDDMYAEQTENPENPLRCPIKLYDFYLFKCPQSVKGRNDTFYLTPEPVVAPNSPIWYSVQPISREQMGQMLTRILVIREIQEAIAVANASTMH
UniProt Q99638: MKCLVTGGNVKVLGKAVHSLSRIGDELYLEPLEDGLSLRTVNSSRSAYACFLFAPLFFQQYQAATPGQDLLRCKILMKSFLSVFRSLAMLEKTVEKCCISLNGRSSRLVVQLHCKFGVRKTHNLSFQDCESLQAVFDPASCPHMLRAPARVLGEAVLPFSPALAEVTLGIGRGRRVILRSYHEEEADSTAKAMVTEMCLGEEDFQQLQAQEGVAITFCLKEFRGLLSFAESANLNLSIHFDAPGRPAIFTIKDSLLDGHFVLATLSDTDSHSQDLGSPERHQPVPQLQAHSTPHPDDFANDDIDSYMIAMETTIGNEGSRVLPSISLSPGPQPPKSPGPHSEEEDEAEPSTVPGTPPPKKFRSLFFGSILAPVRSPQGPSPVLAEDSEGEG
UniProt P20340: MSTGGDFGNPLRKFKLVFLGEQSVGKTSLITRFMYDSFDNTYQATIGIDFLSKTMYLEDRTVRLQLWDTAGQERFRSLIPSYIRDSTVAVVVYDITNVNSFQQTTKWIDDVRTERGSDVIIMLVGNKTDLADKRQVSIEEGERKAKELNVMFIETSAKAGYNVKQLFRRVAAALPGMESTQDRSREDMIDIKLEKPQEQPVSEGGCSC
UniProt P11216: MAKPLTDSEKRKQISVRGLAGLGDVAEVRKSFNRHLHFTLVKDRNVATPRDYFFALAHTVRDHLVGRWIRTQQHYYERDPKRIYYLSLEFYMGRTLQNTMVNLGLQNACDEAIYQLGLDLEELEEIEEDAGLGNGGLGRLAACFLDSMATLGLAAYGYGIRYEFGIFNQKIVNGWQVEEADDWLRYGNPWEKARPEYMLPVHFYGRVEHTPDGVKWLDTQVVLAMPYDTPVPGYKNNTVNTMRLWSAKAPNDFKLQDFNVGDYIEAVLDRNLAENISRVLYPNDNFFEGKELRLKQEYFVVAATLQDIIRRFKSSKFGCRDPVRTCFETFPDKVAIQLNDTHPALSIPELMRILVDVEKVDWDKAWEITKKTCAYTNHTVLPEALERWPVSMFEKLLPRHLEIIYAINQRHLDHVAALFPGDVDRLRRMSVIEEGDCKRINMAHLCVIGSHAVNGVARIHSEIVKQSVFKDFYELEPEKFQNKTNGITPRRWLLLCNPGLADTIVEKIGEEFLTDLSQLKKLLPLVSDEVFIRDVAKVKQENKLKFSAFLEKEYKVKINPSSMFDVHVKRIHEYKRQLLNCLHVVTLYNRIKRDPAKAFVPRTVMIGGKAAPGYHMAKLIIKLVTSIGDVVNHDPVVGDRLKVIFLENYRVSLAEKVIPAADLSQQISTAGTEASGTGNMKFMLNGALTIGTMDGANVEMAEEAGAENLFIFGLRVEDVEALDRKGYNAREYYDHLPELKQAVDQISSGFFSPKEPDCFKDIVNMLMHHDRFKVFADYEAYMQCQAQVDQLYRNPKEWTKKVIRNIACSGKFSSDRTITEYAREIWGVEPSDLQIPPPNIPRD
UniProt P61020: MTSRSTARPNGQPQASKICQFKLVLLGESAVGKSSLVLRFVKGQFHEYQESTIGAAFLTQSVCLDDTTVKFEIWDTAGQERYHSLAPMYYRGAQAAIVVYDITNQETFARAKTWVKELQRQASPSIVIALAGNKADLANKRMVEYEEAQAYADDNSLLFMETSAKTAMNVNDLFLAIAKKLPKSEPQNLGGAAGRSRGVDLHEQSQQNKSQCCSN

pictilisib = compound: CS(=O)(=O)N1CCN(Cc2cc3nc(-c4cccc5[nH]ncc45)nc(N4CCOCC4)c3s2)CC1 [pictilisib]
Summary of the method: as §1

crizotinib = compound: C[C@@H](Oc1cc(-c2cnn(C3CCNCC3)c2)cnc1N)c1c(Cl)ccc(F)c1Cl [crizotinib]
Summary of the method: as §1

[1] = compound: C[C@H](C1=CC=C(C=C1)C(=O)NC2=C3C=CNC3=NC=C2)N
Summary of the method: as §1

duvelisib = compound: C[C@H](Nc1ncnc2nc[nH]c12)c1cc2cccc(Cl)c2c(=O)n1-c1ccccc1 [duvelisib]
Summary of the method: as §1

gandotinib = compound: Cc1cc(Nc2cc(CN3CCOCC3)c3nc(C)c(Cc4ccc(Cl)cc4F)n3n2)n[nH]1 [gandotinib]
Summary of the method: as §1

tozasertib = compound: Cc1cc(Nc2cc(N3CCN(C)CC3)nc(Sc3ccc(NC(=O)C4CC4)cc3)n2)n[nH]1 [tozasertib]
Summary of the method: as §1

doramapimod = compound: Cc1ccc(-n2nc(C(C)(C)C)cc2NC(=O)Nc2ccc(OCCN3CCOCC3)c3ccccc23)cc1 [doramapimod]
Summary of the method: as §1

bafetinib = compound: Cc1ccc(NC(=O)c2ccc(CN3CC[C@H](N(C)C)C3)c(C(F)(F)F)c2)cc1Nc1nccc(-c2cncnc2)n1 [bafetinib]
Summary of the method: as §1

[2] = compound: Cc1cccc(CC(=O)N2CCc3c2ccc(-c2cn(C)c4ncnc(N)c24)c3F)n1
Summary of the method: as §1

nilotinib = compound: Cc1cn(-c2cc(NC(=O)c3ccc(C)c(Nc4nccc(-c5cccnc5)n4)c3)cc(C(F)(F)F)c2)cn1 [nilotinib]
Summary of the method: as §1

[3] = compound: Cc1nc(Nc2n[nH]c3c2CN(C(=O)N[C@H](CN(C)C)c2ccccc2)C3(C)C)c2sccc2n1
Summary of the method: as §1

dasatinib = compound: Cc1nc(Nc2ncc(C(=O)Nc3c(C)cccc3Cl)s2)cc(N2CCN(CCO)CC2)n1 [dasatinib]
Summary of the method: as §1

[4] = compound: Cc1ncc(-c2ccnc(Nc3ccc(S(C)(=O)=O)cc3)n2)n1C(C)C
Summary of the method: as §1

[5] = compound: Cn1cc(-c2ccc3c(c2)CCN3C(=O)Cc2cccc(C(F)(F)F)c2)c2c(N)ncnc21
Summary of the method: as §1

quisinostat = compound: Cn1cc(CNCC2CCN(c3ncc(C(=O)NO)cn3)CC2)c2ccccc21 [quisinostat]
Summary of the method: as §1

tipifarnib = compound: Cn1cncc1[C@@](N)(c1ccc(Cl)cc1)c1ccc2c(c1)c(-c1cccc(Cl)c1)cc(=O)n2C [tipifarnib]
Summary of the method: as §1

[6] = compound: NC(=O)Nc1cc(-c2cccc(F)c2)sc1C(=O)N[C@H]1CCCNC1
Summary of the method: as §1

[7] = compound: NC(=O)c1cnc(N[C@@H]2CCCC[C@@H]2N)nc1Nc1cccc(-n2nccn2)c1
Summary of the method: as §1

[8] = compound: NC1(c2ccc(-c3nc4ccn5c(=O)[nH]nc5c4cc3-c3ccccc3)cc2)CCC1
Summary of the method: as §1

Measured: log2 fold change

RAB11A (UniProt P62491)
inactive: lapatinib 0.075 | pictilisib -0.076 | crizotinib -0.024 | [1] 0.119 | duvelisib -0.011 | gandotinib -0.132 | tozasertib -0.013 | doramapimod -0.024 | bafetinib 0.065 | [2] -0.039 | nilotinib -0.061 | [3] -0.024 | dasatinib 0.017 | [4] 0.237 | [5] 0.013 | quisinostat 0.047 | tipifarnib -0.128 | [6] -0.009 | [7] 0.048 | [8] -0.03

RALY (UniProt Q9UKM9)
inactive: lapatinib 0.027 | pictilisib -0.024 | crizotinib -0.055 | [1] 0.034 | duvelisib 0.051 | gandotinib -0.11 | tozasertib -0.058 | doramapimod -0.036 | bafetinib 0.053 | [2] -0.037 | nilotinib -0.026 | [3] 0.018 | dasatinib 0.032 | [4] 0.049 | [5] -0.004 | quisinostat -0.094 | tipifarnib -0.019 | [6] 0.016 | [7] 0.013 | [8] -0.103

PYROXD1 (UniProt Q8WU10)
inactive: lapatinib -0.129 | pictilisib 0.005 | crizotinib 0.065 | [1] -0.088 | duvelisib -0.026 | gandotinib -0.214 | tozasertib 0.002 | doramapimod -0.011 | bafetinib 0.014 | [2] 0.016 | nilotinib 0.002 | [3] 0.053 | dasatinib 0 | [4] -0.178 | [5] 0.015 | quisinostat 0.086 | tipifarnib 0.218 | [6] -0.013 | [7] 0.055 | [8] 0.005

RAB3GAP2 (UniProt Q9H2M9)
inactive: lapatinib 0.001 | pictilisib -0.017 | crizotinib -0.028 | [1] 0.019 | duvelisib -0.017 | gandotinib -0.073 | tozasertib 0.002 | doramapimod 0.032 | bafetinib -0.06 | [2] 0.008 | nilotinib 0.001 | [3] 0.001 | dasatinib -0.05 | [4] -0.002 | [5] 0.044 | quisinostat 0.001 | tipifarnib -0.023 | [6] 0.003 | [7] 0.02 | [8] -0.012

RAP2B (UniProt P61225)
inactive: lapatinib -0.033 | pictilisib 0.015 | crizotinib 0 | [1] -0.031 | duvelisib 0.001 | gandotinib 0.005 | tozasertib -0.024 | doramapimod -0.03 | bafetinib 0.017 | [2] 0.032 | nilotinib -0.009 | [3] -0.02 | dasatinib 0.058 | [4] -0.019 | [5] 0.009 | quisinostat 0.076 | tipifarnib 0.038 | [6] -0.048 | [7] 0.013 | [8] -0.024

RAB2A (UniProt P61019)
inactive: lapatinib -0.007 | pictilisib -0.009 | crizotinib 0.061 | [1] 0.003 | duvelisib -0.007 | gandotinib -0.072 | tozasertib 0.068 | doramapimod -0.025 | bafetinib -0.014 | [2] -0.038 | nilotinib -0.002 | [3] 0.006 | dasatinib 0 | [4] -0.112 | [5] 0.005 | quisinostat 0.049 | tipifarnib -0.045 | [6] -0.025 | [7] -0.003 | [8] 0.029

RABGEF1 isoform 3 (UniProt Q9UJ41)
inactive: lapatinib 0.016 | pictilisib 0.011 | crizotinib 0.006 | [1] -0.028 | duvelisib -0.001 | gandotinib -0.008 | tozasertib 0.028 | doramapimod 0.008 | bafetinib -0.04 | [2] 0.004 | nilotinib -0.005 | [3] -0.019 | dasatinib 0.01 | [4] 0.011 | [5] 0.027 | quisinostat -0.028 | tipifarnib 0.001 | [6] 0.017 | [7] -0.006 | [8] -0.03

RAMAC (UniProt Q9BTL3)
inactive: lapatinib 0.035 | pictilisib 0.06 | crizotinib 0.061 | [1] 0.078 | duvelisib -0.019 | gandotinib -0.047 | tozasertib 0.084 | doramapimod -0.035 | bafetinib 0.142 | [2] -0.009 | nilotinib -0.049 | [3] 0.036 | dasatinib 0.045 | [4] 0.069 | [5] 0.017 | quisinostat 0.118 | tipifarnib -0.022 | [6] -0.011 | [7] -0.042 | [8] 0.05

RAB14 (UniProt P61106)
inactive: lapatinib -0.041 | pictilisib -0.039 | crizotinib -0.035 | [1] -0.113 | duvelisib -0.02 | gandotinib 0.04 | tozasertib 0.015 | doramapimod -0.029 | bafetinib -0.038 | [2] 0.052 | nilotinib -0.014 | [3] -0.01 | dasatinib -0.058 | [4] -0.004 | [5] -0.03 | quisinostat -0.031 | tipifarnib -0.078 | [6] 0.013 | [7] 0 | [8] -0.03

RAD21 (UniProt O60216)
inactive: lapatinib 0.027 | pictilisib -0.005 | crizotinib 0.024 | [1] 0.01 | duvelisib 0.001 | gandotinib 0.041 | tozasertib -0.015 | doramapimod 0.005 | bafetinib 0.012 | [2] 0.001 | nilotinib -0.005 | [3] -0.008 | dasatinib 0 | [4] -0.01 | [5] 0.048 | quisinostat 0.008 | tipifarnib 0.013 | [6] -0.012 | [7] 0.007 | [8] 0.039

RALBP1 (UniProt Q15311)
inactive: lapatinib -0.056 | pictilisib -0.027 | crizotinib -0.033 | [1] -0.033 | duvelisib 0.001 | gandotinib 0.019 | tozasertib -0.015 | doramapimod -0.012 | bafetinib -0.064 | [2] 0.003 | nilotinib -0.057 | [3] 0.051 | dasatinib -0.006 | [4] 0.012 | [5] 0 | quisinostat -0.087 | tipifarnib -0.032 | [6] -0.017 | [7] -0.001 | [8] 0.008

QRICH1 (UniProt Q2TAL8)
inactive: lapatinib -0.008 | pictilisib -0.071 | crizotinib -0.052 | [1] -0.033 | duvelisib -0.021 | gandotinib -0.053 | tozasertib 0 | doramapimod 0 | bafetinib -0.071 | [2] 0.045 | nilotinib -0.005 | [3] 0.008 | dasatinib -0.1 | [4] -0.034 | [5] 0.034 | quisinostat -0.047 | tipifarnib 0.004 | [6] 0.019 | [7] -0.003 | [8] 0.019

RAD9A (UniProt Q99638)
inactive: lapatinib -0.016 | pictilisib -0.002 | crizotinib 0.03 | [1] 0.029 | duvelisib 0.012 | gandotinib -0.019 | tozasertib 0.043 | doramapimod 0.032 | bafetinib -0.032 | [2] -0.063 | nilotinib -0.021 | [3] -0.005 | dasatinib -0.025 | [4] -0.026 | [5] 0 | quisinostat -0.023 | tipifarnib 0.013 | [6] -0.019 | [7] 0.031 | [8] 0.009

RAB6A isoform 4 (UniProt P20340)
inactive: lapatinib 0.067 | pictilisib -0.027 | crizotinib 0.044 | [1] -0.043 | duvelisib -0.004 | gandotinib 0.047 | tozasertib 0.01 | doramapimod -0.003 | bafetinib 0.009 | [2] -0.002 | nilotinib 0.016 | [3] 0.025 | dasatinib -0.002 | [4] 0.035 | [5] 0 | quisinostat 0.004 | tipifarnib -0.071 | [6] 0.014 | [7] -0.011 | [8] -0.042

PYGB (UniProt P11216)
inactive: lapatinib -0.015 | pictilisib 0.008 | crizotinib -0.018 | [1] 0.048 | duvelisib -0.019 | gandotinib -0.077 | tozasertib 0.085 | doramapimod 0 | bafetinib -0.019 | [2] -0.069 | nilotinib -0.019 | [3] 0.001 | dasatinib 0.112 | [4] -0.02 | [5] 0.006 | quisinostat -0.033 | tipifarnib 0.014 | [6] 0.013 | [7] 0.003 | [8] 0.04

RAB5B (UniProt P61020)
inactive: lapatinib -0.032 | pictilisib -0.055 | crizotinib 0.013 | [1] -0.042 | duvelisib -0.033 | gandotinib 0.017 | tozasertib -0.032 | doramapimod 0.006 | bafetinib 0.032 | [2] -0.003 | nilotinib 0.045 | [3] -0.004 | dasatinib -0.038 | [4] 0.022 | [5] -0.008 | quisinostat -0.009 | tipifarnib -0.075 | [6] 0.026 | [7] -0.003 | [8] -0.043

2 entries drawn at random from the list so far, as already listed:
PYGB (UniProt P11216)
inactive: lapatinib -0.015 | pictilisib 0.008 | crizotinib -0.018 | [1] 0.048 | duvelisib -0.019 | gandotinib -0.077 | tozasertib 0.085 | doramapimod 0 | bafetinib -0.019 | [2] -0.069 | nilotinib -0.019 | [3] 0.001 | dasatinib 0.112 | [4] -0.02 | [5] 0.006 | quisinostat -0.033 | tipifarnib 0.014 | [6] 0.013 | [7] 0.003 | [8] 0.04

RAB5B (UniProt P61020)
inactive: lapatinib -0.032 | pictilisib -0.055 | crizotinib 0.013 | [1] -0.042 | duvelisib -0.033 | gandotinib 0.017 | tozasertib -0.032 | doramapimod 0.006 | bafetinib 0.032 | [2] -0.003 | nilotinib 0.045 | [3] -0.004 | dasatinib -0.038 | [4] 0.022 | [5] -0.008 | quisinostat -0.009 | tipifarnib -0.075 | [6] 0.026 | [7] -0.003 | [8] -0.043

— the supplement of paper PMC10849652
